Data taken from the supplement of paper PMC10849652.
The list shows a part of the results. Residues, ends and D or L forms follow the SMILES beside them. *: point of attachment. Cbz = O=C(OCc1ccccc1)*

Protein sequences, listed by entry. Tags and fused reporters are not part of them. Lines headed by an entry give the natural chain unless they say otherwise; changes in a name come on top.
UniProt Q8IYQ7: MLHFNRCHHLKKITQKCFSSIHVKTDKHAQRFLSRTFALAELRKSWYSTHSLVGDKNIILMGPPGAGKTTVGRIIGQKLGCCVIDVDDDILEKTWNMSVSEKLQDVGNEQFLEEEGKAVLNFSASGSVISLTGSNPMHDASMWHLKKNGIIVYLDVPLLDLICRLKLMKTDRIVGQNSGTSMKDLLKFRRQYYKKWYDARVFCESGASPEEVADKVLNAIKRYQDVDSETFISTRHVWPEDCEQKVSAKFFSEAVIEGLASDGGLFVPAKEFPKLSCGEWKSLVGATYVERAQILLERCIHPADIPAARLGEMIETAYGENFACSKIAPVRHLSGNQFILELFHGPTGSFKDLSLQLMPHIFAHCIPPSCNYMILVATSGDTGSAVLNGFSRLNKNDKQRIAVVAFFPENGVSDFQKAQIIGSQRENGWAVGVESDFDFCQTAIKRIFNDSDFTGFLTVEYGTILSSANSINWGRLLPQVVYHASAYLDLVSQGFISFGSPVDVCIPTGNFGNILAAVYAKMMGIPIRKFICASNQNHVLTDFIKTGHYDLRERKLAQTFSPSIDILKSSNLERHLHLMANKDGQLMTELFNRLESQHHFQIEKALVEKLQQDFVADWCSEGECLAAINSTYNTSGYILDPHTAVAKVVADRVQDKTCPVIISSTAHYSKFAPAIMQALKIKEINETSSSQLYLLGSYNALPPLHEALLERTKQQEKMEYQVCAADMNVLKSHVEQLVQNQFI
UniProt Q9BTF0: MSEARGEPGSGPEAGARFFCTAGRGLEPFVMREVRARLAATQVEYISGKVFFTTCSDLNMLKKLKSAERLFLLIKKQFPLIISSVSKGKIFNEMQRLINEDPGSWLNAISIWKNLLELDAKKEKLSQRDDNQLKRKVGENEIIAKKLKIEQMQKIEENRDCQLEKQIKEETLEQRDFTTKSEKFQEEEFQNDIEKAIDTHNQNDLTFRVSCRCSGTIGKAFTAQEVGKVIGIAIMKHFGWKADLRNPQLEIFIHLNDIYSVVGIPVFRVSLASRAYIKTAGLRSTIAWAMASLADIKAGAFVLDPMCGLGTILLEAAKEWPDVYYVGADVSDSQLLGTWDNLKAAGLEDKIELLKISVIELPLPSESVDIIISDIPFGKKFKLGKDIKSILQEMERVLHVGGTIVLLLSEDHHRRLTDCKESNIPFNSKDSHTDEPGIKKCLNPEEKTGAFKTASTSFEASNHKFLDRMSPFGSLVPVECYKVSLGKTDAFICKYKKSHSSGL
UniProt Q15813: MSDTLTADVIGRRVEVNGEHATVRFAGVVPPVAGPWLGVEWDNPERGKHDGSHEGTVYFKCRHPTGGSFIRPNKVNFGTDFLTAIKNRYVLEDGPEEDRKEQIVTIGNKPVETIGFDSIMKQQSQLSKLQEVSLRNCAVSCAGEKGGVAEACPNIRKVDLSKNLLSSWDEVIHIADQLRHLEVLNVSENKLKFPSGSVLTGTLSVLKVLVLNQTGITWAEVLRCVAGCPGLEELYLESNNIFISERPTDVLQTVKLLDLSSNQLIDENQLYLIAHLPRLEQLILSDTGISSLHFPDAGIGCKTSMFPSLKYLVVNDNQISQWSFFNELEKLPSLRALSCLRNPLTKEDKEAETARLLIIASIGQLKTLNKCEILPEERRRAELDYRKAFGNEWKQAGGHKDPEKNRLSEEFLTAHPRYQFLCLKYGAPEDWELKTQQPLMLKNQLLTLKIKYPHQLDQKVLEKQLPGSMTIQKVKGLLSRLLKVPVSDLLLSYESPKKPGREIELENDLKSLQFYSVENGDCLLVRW
UniProt O60220: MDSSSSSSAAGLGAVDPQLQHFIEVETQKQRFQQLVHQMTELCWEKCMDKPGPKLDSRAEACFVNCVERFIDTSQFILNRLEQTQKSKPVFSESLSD
UniProt Q3LXA3: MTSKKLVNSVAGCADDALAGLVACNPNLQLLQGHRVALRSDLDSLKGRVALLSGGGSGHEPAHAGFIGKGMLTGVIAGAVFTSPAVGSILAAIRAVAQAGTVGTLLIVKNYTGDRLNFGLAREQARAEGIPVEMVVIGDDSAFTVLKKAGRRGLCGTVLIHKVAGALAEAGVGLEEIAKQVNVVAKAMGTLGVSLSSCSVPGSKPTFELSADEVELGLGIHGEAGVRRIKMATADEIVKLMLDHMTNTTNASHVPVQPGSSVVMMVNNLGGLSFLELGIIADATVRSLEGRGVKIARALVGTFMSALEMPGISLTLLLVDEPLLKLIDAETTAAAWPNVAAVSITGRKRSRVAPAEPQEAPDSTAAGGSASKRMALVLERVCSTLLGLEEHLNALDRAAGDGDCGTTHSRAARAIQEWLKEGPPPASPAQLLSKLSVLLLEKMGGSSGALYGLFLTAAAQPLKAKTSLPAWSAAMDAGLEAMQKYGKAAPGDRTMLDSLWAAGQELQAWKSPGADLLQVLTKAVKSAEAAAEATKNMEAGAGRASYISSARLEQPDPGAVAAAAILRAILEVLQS
UniProt O60907: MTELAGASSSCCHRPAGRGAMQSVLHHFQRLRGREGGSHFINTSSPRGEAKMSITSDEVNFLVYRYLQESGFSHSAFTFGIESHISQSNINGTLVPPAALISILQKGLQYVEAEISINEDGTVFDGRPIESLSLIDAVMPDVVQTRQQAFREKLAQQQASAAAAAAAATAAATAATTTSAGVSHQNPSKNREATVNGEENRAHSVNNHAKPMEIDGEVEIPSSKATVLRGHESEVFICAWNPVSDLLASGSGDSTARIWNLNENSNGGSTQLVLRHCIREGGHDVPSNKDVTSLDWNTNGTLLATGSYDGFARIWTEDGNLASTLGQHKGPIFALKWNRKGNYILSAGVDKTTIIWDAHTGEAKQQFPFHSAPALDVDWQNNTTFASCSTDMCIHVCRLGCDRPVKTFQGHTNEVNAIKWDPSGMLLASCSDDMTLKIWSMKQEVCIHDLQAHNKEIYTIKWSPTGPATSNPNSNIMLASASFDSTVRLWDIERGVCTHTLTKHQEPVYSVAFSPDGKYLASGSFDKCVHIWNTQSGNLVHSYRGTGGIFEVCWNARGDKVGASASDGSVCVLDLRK
UniProt Q15554: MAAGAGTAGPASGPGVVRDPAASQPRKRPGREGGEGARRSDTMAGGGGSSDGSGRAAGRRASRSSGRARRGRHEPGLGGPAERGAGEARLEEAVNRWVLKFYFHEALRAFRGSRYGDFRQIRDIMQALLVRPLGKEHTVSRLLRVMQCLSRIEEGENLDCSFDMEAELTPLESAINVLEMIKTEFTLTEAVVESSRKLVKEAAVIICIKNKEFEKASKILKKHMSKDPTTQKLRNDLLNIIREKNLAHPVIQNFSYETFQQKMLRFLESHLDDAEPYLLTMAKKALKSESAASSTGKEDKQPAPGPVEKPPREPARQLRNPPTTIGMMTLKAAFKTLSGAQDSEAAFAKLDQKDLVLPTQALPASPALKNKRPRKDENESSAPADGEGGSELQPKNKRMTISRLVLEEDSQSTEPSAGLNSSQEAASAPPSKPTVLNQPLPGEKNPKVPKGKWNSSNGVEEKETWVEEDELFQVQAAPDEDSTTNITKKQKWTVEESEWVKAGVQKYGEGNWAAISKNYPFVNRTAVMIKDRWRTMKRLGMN
UniProt Q04726: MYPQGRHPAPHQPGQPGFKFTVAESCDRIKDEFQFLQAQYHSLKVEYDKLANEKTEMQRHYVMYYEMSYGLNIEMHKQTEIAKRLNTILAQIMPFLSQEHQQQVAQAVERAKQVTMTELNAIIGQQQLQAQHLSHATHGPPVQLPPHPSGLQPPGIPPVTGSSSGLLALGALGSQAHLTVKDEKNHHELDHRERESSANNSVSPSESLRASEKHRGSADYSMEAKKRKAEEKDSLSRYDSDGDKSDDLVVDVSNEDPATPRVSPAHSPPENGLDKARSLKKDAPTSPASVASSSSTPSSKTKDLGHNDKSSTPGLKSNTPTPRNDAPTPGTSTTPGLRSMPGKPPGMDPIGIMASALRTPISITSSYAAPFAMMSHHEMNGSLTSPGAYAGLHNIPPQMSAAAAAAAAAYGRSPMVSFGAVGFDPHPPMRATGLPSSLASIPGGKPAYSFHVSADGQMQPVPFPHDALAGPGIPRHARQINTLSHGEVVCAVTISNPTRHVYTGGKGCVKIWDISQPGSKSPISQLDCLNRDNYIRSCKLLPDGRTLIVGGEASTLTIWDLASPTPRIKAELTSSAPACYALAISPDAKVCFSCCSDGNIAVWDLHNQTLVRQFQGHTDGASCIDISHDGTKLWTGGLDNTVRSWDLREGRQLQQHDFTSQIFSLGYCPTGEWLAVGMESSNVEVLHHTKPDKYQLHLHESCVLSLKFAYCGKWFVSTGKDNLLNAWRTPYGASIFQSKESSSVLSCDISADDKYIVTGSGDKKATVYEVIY
UniProt Q99426: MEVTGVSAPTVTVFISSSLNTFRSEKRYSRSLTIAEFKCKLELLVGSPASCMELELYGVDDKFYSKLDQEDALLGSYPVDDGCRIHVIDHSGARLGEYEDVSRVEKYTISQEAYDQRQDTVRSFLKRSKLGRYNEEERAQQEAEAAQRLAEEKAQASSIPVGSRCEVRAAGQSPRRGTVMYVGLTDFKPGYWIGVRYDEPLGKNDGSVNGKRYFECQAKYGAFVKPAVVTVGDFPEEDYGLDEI
UniProt Q9NXG2: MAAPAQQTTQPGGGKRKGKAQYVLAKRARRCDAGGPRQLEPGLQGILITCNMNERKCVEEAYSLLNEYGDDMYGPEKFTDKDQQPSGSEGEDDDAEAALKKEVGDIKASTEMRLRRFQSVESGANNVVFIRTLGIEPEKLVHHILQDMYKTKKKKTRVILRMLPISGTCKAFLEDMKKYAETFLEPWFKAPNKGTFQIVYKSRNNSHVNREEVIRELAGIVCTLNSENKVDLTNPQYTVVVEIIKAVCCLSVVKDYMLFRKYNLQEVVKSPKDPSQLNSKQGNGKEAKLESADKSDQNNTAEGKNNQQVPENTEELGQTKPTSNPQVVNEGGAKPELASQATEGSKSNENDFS
UniProt P07996: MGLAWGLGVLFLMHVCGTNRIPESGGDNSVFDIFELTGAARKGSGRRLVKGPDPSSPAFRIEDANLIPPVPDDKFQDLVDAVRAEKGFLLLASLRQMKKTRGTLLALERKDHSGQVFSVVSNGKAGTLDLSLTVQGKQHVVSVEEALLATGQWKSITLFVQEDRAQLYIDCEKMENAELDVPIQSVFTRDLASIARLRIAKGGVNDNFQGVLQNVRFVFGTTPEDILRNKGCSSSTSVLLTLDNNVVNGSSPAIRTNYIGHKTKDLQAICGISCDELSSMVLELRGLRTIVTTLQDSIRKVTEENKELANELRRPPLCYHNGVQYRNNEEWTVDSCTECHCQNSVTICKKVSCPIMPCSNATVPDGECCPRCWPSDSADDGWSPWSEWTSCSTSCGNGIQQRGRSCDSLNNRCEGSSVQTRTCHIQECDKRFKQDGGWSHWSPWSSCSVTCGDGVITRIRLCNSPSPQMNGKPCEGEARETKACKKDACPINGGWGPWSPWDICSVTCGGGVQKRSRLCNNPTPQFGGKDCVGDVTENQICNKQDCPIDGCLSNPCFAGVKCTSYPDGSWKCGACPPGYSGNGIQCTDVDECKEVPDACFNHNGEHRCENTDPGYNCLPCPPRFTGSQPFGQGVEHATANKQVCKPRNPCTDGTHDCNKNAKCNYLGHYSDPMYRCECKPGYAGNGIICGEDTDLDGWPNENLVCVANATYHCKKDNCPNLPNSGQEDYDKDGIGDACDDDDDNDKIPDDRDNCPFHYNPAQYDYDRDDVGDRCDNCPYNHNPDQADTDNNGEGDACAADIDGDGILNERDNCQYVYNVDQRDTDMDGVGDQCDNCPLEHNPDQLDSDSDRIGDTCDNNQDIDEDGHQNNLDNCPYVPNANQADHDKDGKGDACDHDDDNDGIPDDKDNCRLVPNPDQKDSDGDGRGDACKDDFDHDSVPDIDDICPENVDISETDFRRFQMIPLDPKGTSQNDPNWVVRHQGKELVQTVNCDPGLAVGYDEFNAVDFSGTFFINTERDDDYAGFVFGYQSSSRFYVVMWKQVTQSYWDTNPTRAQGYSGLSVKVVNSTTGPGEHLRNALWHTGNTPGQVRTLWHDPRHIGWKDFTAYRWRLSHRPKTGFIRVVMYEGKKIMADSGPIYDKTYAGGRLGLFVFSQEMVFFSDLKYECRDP
UniProt Q8WUY1: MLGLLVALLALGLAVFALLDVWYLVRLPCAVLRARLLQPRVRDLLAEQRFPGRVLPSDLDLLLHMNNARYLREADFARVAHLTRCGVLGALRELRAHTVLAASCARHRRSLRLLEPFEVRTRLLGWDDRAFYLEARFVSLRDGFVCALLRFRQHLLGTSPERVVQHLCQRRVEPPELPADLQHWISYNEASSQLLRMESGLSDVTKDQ

Experiments:
Experiment in all cases: log2 fold change, soluble protein after heating vs DMSO (PISA); higher = thermal stabilisation; K562 cells, 10 uM, 30 min; active = over 0.2 and 3.5 SD of the protein, either way, in both replicates (recomputed)
[1] = compound: C#Cc1cccc(Nc2ncnc3cc(OCCOC)c(OCCOC)cc23)c1 [erlotinib]
How it was run: (§1)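 K562 cells at 2×10^6 cells/mL were exposed to 10 μM compound for 30 min, then aliquots were heated for 3 min across 48°C-58°C, pooled, and extracted in PBS containing 0.5% NP-40 at 4°C. The supernatant after 21,000xg for 90 min was taken as soluble protein and measured by TMTpro 16plex LC-MS/MS with channel sums equalised. Thermal stability is reported relative to control samples, with values from duplicates. Fold changes are given on a log2 scale.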

[2] = compound: C/C(=N\NC(=O)C1=CC(=CC=C1)S(=O)(=O)N2CCOCC2)/C3=C(C=CC(=C3)Cl)O
How it was run: as §1

[3] = compound: C1=CC(=C(C=C1Cl)C2=NC3=NC=CN=C3C(=N2)NC4=CC=NC=C4)F
How it was run: as §1

[4] = compound: C1=CC(=CC=C1C2=NC3=C(N2)C=C(C=C3)C(=O)N)OC4=CC=C(C=C4)Cl
How it was run: as §1

[5] = compound: C1=CC2=C(C=CC(=C2)/C=C\3/C(=O)NC(=NCC4=CC=CS4)S3)N=C1
How it was run: as §1

[6] = compound: C1=CC2=NC=CN=C2C=C1/C=C/3\C(=O)NC(=O)S3
How it was run: as §1

[7] = compound: C1=CC=C(C=C1)C2=NC(=C(N2)C3=CC=NC=C3)C4=CC(=C(C=C4)Cl)O
How it was run: as §1

[8] = compound: C1=CC=C2C(=C1)C3=NNC4=CC=CC(=C43)C2=O
How it was run: as §1

[9] = compound: C1CCN(C1)C(=O)NC2=CC=CC(=C2)NC3=NC=C(C(=N3)NCCC4=CN=CN4)Br
How it was run: as §1

[10] = compound: C1CN(CCC1(CC2=CC=C(C=C2)Cl)N)C3=NC=NC4=C3C=CN4
How it was run: as §1

[11] = compound: C1COCCN1CCN2C3=CC=CC=C3N=C2NC(=O)C4=CC(=CC=C4)[N+](=O)[O-] [IRAK-1-4 Inhibitor I]
How it was run: as §1

[12] = compound: C=CC(=O)N1CCC[C@@H](n2nc(-c3ccc(Oc4ccccc4)cc3)c3c(N)ncnc32)C1 [ibrutinib]
How it was run: as §1

[13] = compound: CC(=O)c1cnc2ccc(-c3cc(Cl)c(O)c(Cl)c3)nc2c1N[C@H]1CC[C@H](CN(C)C)CC1
How it was run: as §1

[14] = compound: CC(C)(C)Cn1c(N)nc2ccc(-c3[nH]c(C(C)(C)C)nc3-c3ccc(F)cc3)nc21 [ralimetinib]
How it was run: as §1

[15] = compound: CC(C)(O)CC(=O)NCCn1ccc2ncnc(Nc3ccc(Oc4cccc(C(F)(F)F)c4)c(Cl)c3)c21
How it was run: as §1

[16] = compound: CC(C)C1=C2N=C(C=C(N2N=C1)NCC3=CC=CC=C3)NCCCCCCN
How it was run: as §1

[17] = compound: CC(C)C[C@@H](C=O)NC(=O)[C@H](CC(C)C)NC(=O)[C@H](CC(C)C)NC(=O)OCc1ccccc1
How it was run: as §1

[18] = compound: CC(C)N(C[C@H]1O[C@@H](n2cnc3c(N)ncnc32)[C@H](O)[C@@H]1O)[C@H]1C[C@@H](CCc2nc3cc(C(C)(C)C)ccc3[nH]2)C1 [pinometostat]
How it was run: as §1

[19] = compound: CC1=C(C(CC(=O)N1)C2=CC=C(C=C2)C(F)(F)F)C(=O)NC3=C(C=C4C(=C3)C=NN4)F
How it was run: as §1

[20] = compound: CC1=C(C2=C(C=C1)C(=O)C3=CC=CC=C3N2CCCN)C
How it was run: as §1

Measured: log2 fold change

THNSL1 (UniProt Q8IYQ7)
inactive: [1] 0.051 | [2] 0.088 | [3] 0.062 | [4] 0.058 | [5] -0.02 | [6] -0.007 | [7] 0.017 | [8] -0.016 | [9] -0.046 | [10] 0.077 | [11] 0.033 | [12] -0.04 | [13] -0.032 | [14] -0.038 | [15] -0.074 | [16] -0.059 | [17] -0.012 | [18] -0.003 | [19] -0.052 | [20] -0.003

TBCC (UniProt Q15814)
inactive: [1] 0.015 | [2] 0.051 | [3] 0.048 | [4] 0.025 | [5] 0 | [6] 0.006 | [7] 0.001 | [8] 0.015 | [9] -0.014 | [10] -0.001 | [11] 0.045 | [12] -0.029 | [13] 0.013 | [14] -0.022 | [15] 0 | [16] -0.042 | [17] -0.004 | [18] -0.016 | [19] -0.029 | [20] 0.015

THUMPD2 (UniProt Q9BTF0)
inactive: [1] -0.006 | [2] 0.018 | [3] -0.04 | [4] 0.034 | [5] -0.04 | [6] 0.003 | [7] 0.019 | [8] -0.044 | [9] 0.012 | [10] 0.021 | [11] -0.029 | [12] 0.096 | [13] 0.023 | [14] -0.002 | [15] 0.057 | [16] 0.072 | [17] -0.009 | [18] -0.007 | [19] -0.119 | [20] 0.065

TBCE (UniProt Q15813)
inactive: [1] 0.105 | [2] 0.108 | [3] -0.115 | [4] -0.004 | [5] 0.154 | [6] 0.029 | [7] 0.069 | [8] 0.067 | [9] -0.053 | [10] -0.172 | [11] -0.158 | [12] -0.059 | [13] -0.038 | [14] 0.173 | [15] 0.001 | [16] -0.2 | [17] 0.104 | [18] 0.246 | [19] 0.057 | [20] 0.004

Reprinted at random: 2 entries already listed
THNSL1 (UniProt Q8IYQ7)
inactive: [1] 0.051 | [2] 0.088 | [3] 0.062 | [4] 0.058 | [5] -0.02 | [6] -0.007 | [7] 0.017 | [8] -0.016 | [9] -0.046 | [10] 0.077 | [11] 0.033 | [12] -0.04 | [13] -0.032 | [14] -0.038 | [15] -0.074 | [16] -0.059 | [17] -0.012 | [18] -0.003 | [19] -0.052 | [20] -0.003

TBCC (UniProt Q15814)
inactive: [1] 0.015 | [2] 0.051 | [3] 0.048 | [4] 0.025 | [5] 0 | [6] 0.006 | [7] 0.001 | [8] 0.015 | [9] -0.014 | [10] -0.001 | [11] 0.045 | [12] -0.029 | [13] 0.013 | [14] -0.022 | [15] 0 | [16] -0.042 | [17] -0.004 | [18] -0.016 | [19] -0.029 | [20] 0.015

Next part

TIMM8A (UniProt O60220)
inactive: [1] -0.092 | [2] 0.036 | [3] 0.207 | [4] 0.041 | [5] 0.078 | [6] 0.035 | [7] 0.076 | [8] 0.044 | [9] -0.044 | [10] -0.097 | [11] -0.079 | [12] 0.02 | [13] -0.011 | [14] -0.037 | [15] -0.056 | [16] -0.014 | [17] -0.202 | [18] 0.064 | [19] 0.09 | [20] 0.269

TKFC (UniProt Q3LXA3)
inactive: [1] 0.014 | [2] 0.009 | [3] 0.024 | [4] -0.004 | [5] 0.023 | [6] -0.001 | [7] -0.012 | [8] -0.018 | [9] 0.008 | [10] 0.026 | [11] 0.013 | [12] -0.008 | [13] -0.002 | [14] -0.036 | [15] 0.026 | [16] 0.062 | [17] -0.025 | [18] -0.057 | [19] -0.003 | [20] 0.041

TBC1D22A (UniProt Q8WUA7)
inactive: [1] 0.005 | [2] 0.009 | [3] 0.013 | [4] 0.03 | [5] -0.015 | [6] 0.04 | [7] 0.006 | [8] -0.017 | [9] 0.009 | [10] 0.044 | [11] -0.019 | [12] 0.013 | [13] -0.025 | [14] -0.025 | [15] -0.003 | [16] -0.003 | [17] -0.024 | [18] -0.071 | [19] 0 | [20] -0.013

TBL1X (UniProt O60907)
inactive: [1] -0.047 | [2] 0.076 | [3] 0.016 | [4] 0.021 | [5] 0.002 | [6] 0.032 | [7] -0.046 | [8] -0.034 | [9] -0.026 | [10] 0.017 | [11] 0.029 | [12] 0.011 | [13] -0.094 | [14] -0.085 | [15] -0.053 | [16] 0.037 | [17] 0.003 | [18] 0.002 | [19] 0.027 | [20] 0.007

THOC1 (UniProt Q96FV9)
inactive: [1] 0.262 | [2] 0.055 | [3] -0.113 | [4] 0.021 | [5] -0.059 | [6] -0.061 | [7] 0.014 | [8] -0.067 | [9] 0.048 | [10] -0.099 | [11] -0.089 | [12] -0.045 | [13] 0.006 | [14] 0.12 | [15] -0.033 | [16] -0.025 | [17] 0.069 | [18] 0.121 | [19] 0 | [20] 0.023

TERF2 (UniProt Q15554)
inactive: [1] -0.017 | [2] -0.111 | [3] -0.251 | [4] -0.007 | [5] -0.06 | [6] 0.032 | [7] 0.078 | [8] -0.061 | [9] -0.104 | [10] 0.025 | [11] -0.158 | [12] -0.052 | [13] -0.017 | [14] 0.205 | [15] -0.11 | [16] -0.045 | [17] 0.115 | [18] 0.163 | [19] 0 | [20] -0.009

TLE3 isoform 4 (UniProt Q04726)
inactive: [1] 0.039 | [2] -0.001 | [3] 0.071 | [4] 0.007 | [5] 0.028 | [6] -0.001 | [7] 0.046 | [8] -0.01 | [9] -0.011 | [10] 0.038 | [11] 0.002 | [12] 0.022 | [13] 0.008 | [14] -0.03 | [15] -0.057 | [16] 0.083 | [17] -0.054 | [18] -0.027 | [19] 0.056 | [20] 0.026

TBCB (UniProt Q99426)
inactive: [1] 0.027 | [2] 0.092 | [3] 0.076 | [4] -0.017 | [5] 0.016 | [6] 0.055 | [7] -0.002 | [8] -0.044 | [9] 0.018 | [10] -0.041 | [11] 0.001 | [12] -0.022 | [13] -0.039 | [14] -0.008 | [15] -0.019 | [16] -0.013 | [17] 0.03 | [18] -0.004 | [19] 0.003 | [20] -0.036

THUMPD1 (UniProt Q9NXG2)
inactive: [1] 0.014 | [2] 0.02 | [3] 0.055 | [4] -0.014 | [5] 0.038 | [6] 0.012 | [7] -0.02 | [8] -0.003 | [9] 0.004 | [10] 0.019 | [11] 0.019 | [12] 0.005 | [13] -0.02 | [14] -0.063 | [15] -0.009 | [16] 0.026 | [17] -0.037 | [18] -0.059 | [19] 0.029 | [20] 0.027

TDRKH (UniProt Q9Y2W6)
inactive: [1] 0.019 | [2] 0.033 | [3] -0.165 | [4] 0.019 | [5] 0.017 | [6] -0.069 | [7] 0.098 | [8] 0.085 | [9] -0.091 | [10] -0.059 | [11] 0.032 | [12] -0.063 | [13] -0.054 | [14] 0.074 | [15] 0.003 | [16] -0.1 | [17] 0.104 | [18] 0.016 | [19] -0.027 | [20] 0.049

THBS1 (UniProt P07996)
inactive: [1] -0.146 | [2] -0.101 | [3] -0.011 | [4] 0.127 | [5] 0.087 | [6] -0.035 | [7] -0.088 | [8] -0.061 | [9] 0.065 | [10] 0.11 | [11] 0 | [12] 0.054 | [13] 0.151 | [14] -0.006 | [15] 0.186 | [16] 0.063 | [17] 0.168 | [18] -0.123 | [19] 0.091 | [20] -0.11

THEM6 (UniProt Q8WUY1)
inactive: [1] 0.013 | [2] 0.081 | [3] 0.016 | [4] 0.009 | [5] -0.015 | [6] 0.079 | [7] -0.005 | [8] 0.002 | [9] -0.187 | [10] 0.059 | [11] 0.065 | [12] 0.023 | [13] -0.012 | [14] -0.024 | [15] 0.058 | [16] -0.068 | [17] -0.054 | [18] -0.042 | [19] 0.057 | [20] 0.068
